Results are given in words; binding and its absence hold for the method and conditions named. Binding seen in cells or lysates may run through a third protein. A result given as binding can be weak or reduced; the word gives no strength.
Experiments:
[1] = molecular target: Histone variant H2A.B.3 (mouse); test: co-IP; round spermatids fractionated (LSBD buffer, 250 mM and 500 mM KCl); chromatin fraction sonicated and treated with benzonase; immunoprecipitation with affinity purified H2A.B.3 antibodies; western blotting
[2] = molecular target: Histone variant H2A.B.3 (mouse); test: co-IP; total cellular lysates of UV-irradiated germ cells from 28-30 day mouse testis, no formaldehyde, chromatin mechanically sheared; half treated with RNase I (800 units, 30 min at 37°C), half not; immunoprecipitated with H2A.B.3 antibodies; western blotting

B1: Splicing factor 3B subunit 1 SF3b155 (protein, UniProt Q99NB9 1-1304)
chain: MAKIAKTHEDIEAQIREIQGKKAALDEAQGVGLDSTGYYDQEIYGGSDSRFAGYVTSIAATELEDDDDDYSSSTSLLGQKKPGYHAPVALLNDIPQSTEQYDPFAEHRPPKIADREDEYKKHRRTMIISPERLDPFADGGKTPDPKMNARTYMDVMREQHLTKEEREIRQQLAEKAKAGELKVVNGAAASQPPSKRKRRWDQTADQTPGATPKKLSSWDQAETPGHTPSLRWDETPGRAKGSETPGATPGSKIWDPTPSHTPAGAATPGRGDTPGHATPGHGGATSSARKNRWDETPKTERDTPGHGSGWAETPRTDRGGDSIGETPTPGASKRKSRWDETPASQMGGSTPVLTPGKTPIGTPAMNMATPTPGHIMSMTPEQLQAWRWEREIDERNRPLSDEELDAMFPEGYKVLPPPAGYVPIRTPARKLTATPTPLGGMTGFHMQTEDRTMKSVNDQPSGNLPFLKPDDIQYFDKLLVDVDESTLSPEEQKERKIMKLLLKIKNGTPPMRKAALRQITDKAREFGAGPLFNQILPLLMSPTLEDQERHLLVKVIDRILYKLDDLVRPYVHKILVVIEPLLIDEDYYARVEGREIISNLAKAAGLATMISTMRPDIDNMDEYVRNTTARAFAVVASALGIPSLLPFLKAVCKSKKSWQARHTGIKIVQQIAILMGCAILPHLRSLVEIIEHGLVDEQQKVRTISALAIAALAEAATPYGIESFDSVLKPLWKGIRQHRGKGLAAFLKAIGYLIPLMDAEYANYYTREVMLILIREFQSPDEEMKKIVLKVVKQCCGTDGVEANYIKTEILPPFFKHFWQHRMALDRRNYRQLVDTTVELANKVGAAEIISRIVDDLKDEAEQYRKMVMETIEKIMGNLGAADIDHKLEEQLIDGILYAFQEQTTEDSVMLNGFGTVVNALGKRVKPYLPQICGTVLWRLNNKSAKVRQQAADLISRTAVVMKTCQEEKLMGHLGVVLYEYLGEEYPEVLGSILGALKAIVNVIGMHKMTPPIKDLLPRLTPILKNRHEKVQENCIDLVGRIADRGAEYVSAREWMRICFELLELLKAHKKAIRRATVNTFGYIAKAIGPHDVLATLLNNLKVQERQNRVCTTVAIAIVAETCSPFTVLPALMNEYRVPELNVQNGVLKSLSFLFEYIGEMGKDYIYAVTPLLEDALMDRDLVHRQTASAVVQHMSLGVYGFGCEDSLNHLLNYVWPNVFETSPHVIQAVMGALEGLRVAIGPCRMLQYCLQGLFHPARKVRDVYWKIYNSIYIGSQDALIAHYPRIYNDDKNTYIRYDLDYIL
- binding [1]: binds
- binding [2]: binds

From paper PMC5345878
